Data from publication PMC7032926.
Results are given in words; binding and its absence hold for the method and conditions named. In cells and extracts the contact can be indirect. Some binding calls cover weakened binding; strength is not graded here.

The chains behind the UniProt entries cited, without tags or fusion partners.
UniProt P22366: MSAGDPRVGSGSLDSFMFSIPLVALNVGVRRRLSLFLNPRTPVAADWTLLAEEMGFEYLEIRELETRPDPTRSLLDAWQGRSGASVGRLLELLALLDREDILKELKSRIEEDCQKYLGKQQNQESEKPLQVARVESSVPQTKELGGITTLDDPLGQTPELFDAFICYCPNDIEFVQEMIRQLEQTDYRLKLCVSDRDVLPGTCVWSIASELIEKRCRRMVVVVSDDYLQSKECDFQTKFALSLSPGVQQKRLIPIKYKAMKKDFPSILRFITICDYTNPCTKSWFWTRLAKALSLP

Target: MyD88 (mouse, endogenous in bone marrow derived macrophages) (mouse (endogenous in BMDM)) (UniProt P22366)
Assay: co-IP; endogenous proteins in lysates of primary murine BMDM (wildtype C57BL/6; for IRAK4 also Tlr5-deficient) after 100 ng/mL ultrapure LPS for indicated times; lysis in 0.5% TritonX-100, 20 mM HEPES pH 7.4, 150 mM NaCl, 1.5 mM MgCl2, 2 mM EGTA; protein G-Sepharose; immunoblot

B1: TLR6 (mouse, endogenous in bone marrow derived macrophages) (receptor, UniProt Q9EPW9 28-795)
chain: FSNELESMVDYSNRNLTHVPKDLPPRTKALSLSQNSISELRMPDISFLSELRVLRLSHNRIRSLDFHVFLFNQDLEYLDVSHNRLQNISCCPMASLRHLDLSFNDFDVLPVCKEFGNLTKLTFLGLSAAKFRQLDLLPVAHLHLSCILLDLVSYHIKGGETESLQIPNTTVLHLVFHPNSLFSVQVNMSVNALGHLQLSNIKLNDENCQRLMTFLSELTRGPTLLNVTLQHIETTWKCSVKLFQFFWPRPVEYLNIYNLTITERIDREEFTYSETALKSLMIEHVKNQVFLFSKEALYSVFAEMNIKMLSISDTPFIHMVCPPSPSSFTFLNFTQNVFTDSVFQGCSTLKRLQTLILQRNGLKNFFKVALMTKNMSSLETLDVSLNSLNSHAYDRTCAWAESILVLNLSSNMLTGSVFRCLPPKVKVLDLHNNRIMSIPKDVTHLQALQELNVASNSLTDLPGCGAFSSLSVLVIDHNSVSHPSEDFFQSCQNIRSLTAGNNPFQCTCELRDFVKNIGWVAREVVEGWPDSYRCDYPESSKGTALRDFHMSPLSCDTVLLTVTIGATMLVLAVTGAFLCLYFDLPWYVRMLCQWTQTRHRARHIPLEELQRNLQFHAFVSYSEHDSAWVKNELLPNLEKDDIRVCLHERNFVPGKSIVENIINFIEKSYKAIFVLSPHFIQSEWCHYELYFAHHNLFHEGSDNLILILLEPILQNNIPSRYHKLRALMAQRTYLEWPTEKGKRGLFWANLRASFIMKLALVNEDDVKT
In the case of B1, the binding is reported as “no binding”.

B2: IRAK-4 (mouse, endogenous in bone marrow derived macrophages) (enzyme, UniProt Q8R4K2 1-459)
chain: MNKPLTPSTYIRNLNVGILRKLSDFIDPQEGWKKLAVAIKKPSGDDRYNQFHIRRFEALLQTGKSPTCELLFDWGTTNCTVGDLVDLLVQIELFAPATLLLPDAVPQTVKSLPPREAATVAQTHGPCQEKDRTSVMPMPKLEHSCEPPDSSSPDNRSVESSDTRFHSFSFHELKSITNNFDEQPASAGGNRMGEGGFGVVYKGCVNNTIVAVKKLGAMVEISTEELKQQFDQEIKVMATCQHENLVELLGFSSDSDNLCLVYAYMPNGSLLDRLSCLDGTPPLSWHTRCKVAQGTANGIRFLHENHHIHRDIKSANILLDKDFTAKISDFGLARASARLAQTVMTSRIVGTTAYMAPEALRGEITPKSDIYSFGVVLLELITGLAAVDENREPQLLLDIKEEIEDEEKTIEDYTDEKMSDADPASVEAMYSAASQCLHEKKNRRPDIAKVQQLLQEMSA
With B2 the binding was “binds”.
